## Primary screen of a compound library

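Whole-parasite assay of Trypanosoma brucei over 72 hours; the read-out is not stated. Tested at 30 µM. The record gives no direction; compounds that gave an IC50 in retests scored well above the rest, so higher reads as stronger inhibition. Values scatter widely below zero; nearly all retest evidence comes from the higher of the two concentrations used. Size under these conditions: about 64,000 compounds, about 940 of them at 50% or above in at least one test.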

Each number is a percent effect as filed. The record does not define 0% and 100%; most values in the screen are far below 50% and negative numbers occur (in some assays of this library far below -100). Compounds were drawn at random from those tested, without regard to their results.

{"compound": "CC(C)N1CCC(Cc2cc(-c3cccc(C(=O)O)c3)ncn2)CC1", "Percent Effect": -7.201}
{"compound": "CCOc1cccc(COC(=O)c2ccc(Cl)cn2)n1", "Percent Effect": -21.9}
{"compound": "Cc1ncsc1CN(C)C(=O)CC1CCOc2ccccc21", "stereo": "stereo not shown", "Percent Effect": -21.27}
{"compound": "Cc1cc(C)n(CC(C)NCc2nncn2C2CCCCC2)n1", "stereo": "stereo not shown", "Percent Effect": -9.779}
{"compound": "CCCS(=O)(=O)CCN1CCOC(c2ccsc2)C1", "stereo": "stereo not shown", "Percent Effect": -50.17}
{"compound": "CC(=O)c1cccc(OCCCC(=O)N(C)Cc2ccccn2)c1", "Percent Effect": 2.875}
{"compound": "O=C(c1ccc[nH]1)N1CCc2ccc(S(=O)(=O)N3CCOCC3)cc2C1", "Percent Effect": -35.29}
{"compound": "[H][C@@]12COC[C@]1(COCC1CC1)CN(C(=O)C1=CCCC1)C2", "Percent Effect": -60.1}
{"compound": "Cc1c(Cc2ccccc2)c(O)nc2nc(N3CCOCC3)nn12", "Percent Effect": -15.54}
{"compound": "O=C(O)C(F)(F)F.[H][C@@]12C[C@H](C(=O)NC3CC3)CN(CC3CCOCC3)[C@]1([H])CCO2", "Percent Effect": -17.3}
{"compound": "CN(C)c1cnn(CC(=O)N2CCCCCC2)c(=O)c1", "Percent Effect": 13.11}
{"compound": "COc1ccccc1C(=O)N1CC(=O)N(C2CCCCC2)CC(O)C1", "stereo": "stereo not shown", "Percent Effect": -41.2}
{"compound": "Cc1ccc(C(CNCc2cccn2C)N2CCOCC2)s1", "stereo": "stereo not shown", "Percent Effect": -8.63}
{"compound": "Cc1nn(C)c(N(C)C)c1CNCCCNS(C)(=O)=O", "Percent Effect": -0.2057}
{"compound": "COCCNc1ncc(-c2cccc(F)c2)c(-c2nccn2C)n1", "Percent Effect": -17.24}
{"compound": "Cc1nc(C2CCCN(C(=O)c3cc(C)sc3C)C2)no1", "stereo": "stereo not shown", "Percent Effect": -31.73}
{"compound": "Cc1cccc(OCC(O)CNCc2c(C)nn(C)c2N(C)C)c1", "stereo": "stereo not shown", "Percent Effect": 0.2634}
{"compound": "Cc1c(COC(C)C)cccc1NC(=O)N1CCC(N2CCCC2)C1", "stereo": "stereo not shown", "Percent Effect": 9.187}
{"compound": "Cc1cccc(CN2CCc3onc(CN(C)C)c3C2)n1", "Percent Effect": -54.83}
{"compound": "O=C(CN1CCOc2ccccc2C1)NCc1cc2n(n1)CCCNC2", "Percent Effect": -42.54}
{"compound": "c1nc(N2CCCC(Cn3cncn3)C2)c2ccsc2n1", "stereo": "stereo not shown", "Percent Effect": -25.57}
{"compound": "COC(=O)[C@@H]1C[C@H](NC(=O)c2cc(=O)[nH]c3ccc(C)cc23)CN1C", "Percent Effect": -14.71}
{"compound": "CNC(=O)[C@@H]1C[C@H](N)CN1S(=O)(=O)c1cc(Cl)c(Cl)s1", "Percent Effect": 11.59}
{"compound": "NC1CCCN(C(=O)c2csc(-c3ccc(C(F)(F)F)cc3)n2)CC1", "stereo": "stereo not shown", "Percent Effect": -78.51}
{"compound": "Cc1cc(NC(=O)Cn2nc(C)c(C#N)c2N)ccc1Br", "Percent Effect": -7.857}
{"compound": "CC(C)(C)c1nc(CN2CCCC(Cn3cncn3)C2)cs1", "stereo": "stereo not shown", "Percent Effect": -46.55}
{"compound": "Cc1nc(N2CCC(O)(c3ccccc3)CC2)c2c(C)nn(C)c2n1", "Percent Effect": -85.1}
{"compound": "NCC1Cc2cc(-c3nccc(N4CCC(O)CC4)n3)cc(F)c2O1", "stereo": "stereo not shown", "Percent Effect": 16.33}
{"compound": "O=c1[nH]c(-c2ccc(F)c(F)c2)nc2c1CCNC2", "Percent Effect": 7.961}
{"compound": "Cc1ncc(CN(C)CCO)c2cc(C(=O)c3ccc(Br)cc3)oc12.Cl", "Percent Effect": -5.108}
{"compound": "CC(C)NC(=O)C1CN(C(=O)c2ccco2)CC12CCOCC2", "stereo": "stereo not shown", "Percent Effect": 7.553}
{"compound": "O=C(O)C(F)(F)F.O=C(c1ccco1)N1CCOCC2(C1)CN(c1cccnc1)C(=O)CO2", "stereo": "stereo not shown", "Percent Effect": -9.161}
{"compound": "CCN1CCOCC12CCN(c1nccs1)CC2.O=C(O)C(F)(F)F", "Percent Effect": -46.66}
{"compound": "CC(O)CN1CCN(CCOCC(F)(F)F)CC1", "stereo": "stereo not shown", "Percent Effect": -9.124}
{"compound": "COCCOc1ccnc(-c2noc([C@@H]3CCCN3C)n2)c1", "Percent Effect": -7.587}
{"compound": "CC1=CCN(S(=O)(=O)c2cccc(C(=O)N3CCOCC3)c2)CC1", "Percent Effect": -19.21}
{"compound": "Cn1ccc(C2CCCCN2C(=O)c2cccc(-n3cccn3)c2)n1", "stereo": "stereo not shown", "Percent Effect": -12.68}
{"compound": "COc1cccc(-c2cc(C(=O)Nc3nc[nH]n3)[nH]n2)c1", "Percent Effect": -1.644}
{"compound": "[H][C@@]12CN(C(=O)[C@H]3CCCO3)C[C@]1([H])C(=O)N(CCOC)C2", "Percent Effect": -21.94}
{"compound": "CC(C)OCc1noc(C2CC=CC2)n1", "Percent Effect": -10.93}
{"compound": "O=S1(=O)COCCN1CCCOc1ccc(F)cc1", "Percent Effect": -22.75}
{"compound": "O=C(O)CCCc1ccc2c(c1)CC(=O)N2", "Percent Effect": -28.73}
{"compound": "Cn1cc(CN2CCC(c3ccncc3)CC2)cn1", "Percent Effect": -1.135}
{"compound": "Cc1occc1C(=O)N1CCC2(CCCN(Cc3cccs3)C2)C1.O=C(O)C(F)(F)F", "stereo": "stereo not shown", "Percent Effect": -43.33}
{"compound": "O=C(O)C(F)(F)F.[H][C@@]12C[C@H](C(=O)N3CCCCO3)CN(Cc3ccoc3)[C@]1([H])CCO2", "Percent Effect": -119.4}
{"compound": "CCc1nnsc1C(=O)N1CCCN(Cc2nccn2C)CC1", "Percent Effect": -16.54}
{"compound": "CS(=O)(=O)NCC1CCN(Cc2cc3ccccc3[nH]c2=O)C1", "stereo": "stereo not shown", "Percent Effect": -17.55}
{"compound": "Cc1ccc(CN(C(=O)NCC(c2cccs2)N(C)C)C2CC2)o1", "stereo": "stereo not shown", "Percent Effect": -65.38}
{"compound": "CNC(=O)CN(C)Cc1ccc(F)cc1Cl", "Percent Effect": -10.17}
{"compound": "O=C(O)C(F)(F)F.O=C(O)C(F)(F)F.O=C1N(c2cccnc2)CCC12CCCN(Cc1ccco1)C2", "stereo": "stereo not shown", "Percent Effect": -9.993}
{"compound": "CC(NC(=O)CCCc1ccc(Cl)cc1)c1nnn[nH]1", "stereo": "stereo not shown", "Percent Effect": -14.6}
{"compound": "[H][C@@]12C[C@@H](Oc3ccccc3)C[C@]1([H])CN(Cc1cnc(C)cn1)C2", "Percent Effect": -12.87}

Some entries from above, unchanged:

{"compound": "CC(C)(C)c1nc(CN2CCCC(Cn3cncn3)C2)cs1", "stereo": "stereo not shown", "Percent Effect": -46.55}
{"compound": "CC1=CCN(S(=O)(=O)c2cccc(C(=O)N3CCOCC3)c2)CC1", "Percent Effect": -19.21}
{"compound": "Cc1ncsc1CN(C)C(=O)CC1CCOc2ccccc21", "stereo": "stereo not shown", "Percent Effect": -21.27}
{"compound": "CS(=O)(=O)NCC1CCN(Cc2cc3ccccc3[nH]c2=O)C1", "stereo": "stereo not shown", "Percent Effect": -17.55}
{"compound": "O=C(O)C(F)(F)F.[H][C@@]12C[C@H](C(=O)NC3CC3)CN(CC3CCOCC3)[C@]1([H])CCO2", "Percent Effect": -17.3}
{"compound": "Cc1c(Cc2ccccc2)c(O)nc2nc(N3CCOCC3)nn12", "Percent Effect": -15.54}

Data taken from ChEMBL document CHEMBL3988442, “University of Dundee, Small-Polar-MMV Screening Library” (2021).